Measured values taken from PubChem BioAssay AID445 (National Center for Advancing Translational Sciences (NCATS), 2006).
The other results are listed elsewhere or left out. Further columns of the screen follow, without active or inactive calls. Most of these compounds were active or inconclusive in the main read-out, so they are no random draw. Words in brackets tell the shape of the fitted curve; partial curves, single points and poor fits give uncertain potencies.

Experiment: IkB Signaling
Conditions: ABC-DLBCL IkBa-CBG/CBR dual luciferase ratio (green luciferase fused to IkBa over red control in OCI-Ly3 lymphoma cells), 4 h; measured here: control luc red channel unless noted
Summary of the method: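 Luminescence ratio of IκBα-fused green versus native red beetle luciferase in OCI-Ly3 cells, 4 h post-doxycycline with compound; red signal alone, scaled from basal (0%) to zero light (-100%), flagged nonspecific or cytotoxic effects.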

**Q.** With `COc1ccc(CCNc2nc(C)nc3c2oc2ccccc23)cc1OC` as the compound, how does the AC50 read?
**A.** 3.98 µM [falling, full curve]

**Q.** For `Cc1ccc(CN2CCCn3nc(C(=O)NCc4ccc(N(C)C)cc4)cc3C2=O)cc1`, which AC50 is on record?
**A.** 3.98 µM [falling, partial curve, poor fit]

**Q.** With `COc1ccc(CCNc2nc3c(-c4cccc(C(F)(F)F)c4)nnn3c3ccccc23)cc1OC` as the compound, how does the AC50 read?
**A.** 3.98 µM [rising, partial curve, poor fit]

**Q.** With `Cc1ccc(N=Cc2ccc(O)cc2O)cc1F` as the compound, how does the AC50 read?
**A.** 12.6 µM [rising, partial curve] [measured here: IkB-luc green channel]

**Q.** With `CCOc1ccc(NCc2nnc(SCC(=O)Nc3cc(C)on3)n2-c2ccccc2OC)cc1` as the compound, how does the AC50 read?
**A.** 0.0501 µM [falling, full curve]

**Q.** With `COc1ccc(-c2cnn(-c3ccccc3)c2N)cc1OC` as the compound, how does the AC50 read?
**A.** 5.01 µM [falling, partial curve]

**Q.** Which AC50 does the source give for `O=C(O)CCCC(=O)Nc1ccc(N2CCCC2)cc1` here?
**A.** 3.98 µM [falling, partial curve]

**Q.** Which AC50 does the source give for `CC(C)CNC(=O)Nc1cc(C(=O)NCc2ccc(C(C)C)cc2)ccc1N1CCCC1` here?
**A.** 10 µM [falling, partial curve]

**Q.** For `CCOC(=O)c1sc2ncn(CC(=O)Nc3cc(Cl)ccc3C)c(=O)c2c1C`, which AC50 is on record?
**A.** 0.126 µM [falling, full curve, poor fit]

**Q.** With `COc1cccc(NC(=O)C2CCN(c3ncccn3)CC2)c1` as the compound, how does the AC50 read?
**A.** 31.6 µM [falling, single point]

**Q.** For `CC(=O)c1ccc(N2CCN(C(=O)c3cc(S(=O)(=O)N4CCCCCC4)cn3C)CC2)cc1`, which AC50 is on record?
**A.** 10 µM [falling, full curve, poor fit]

**Q.** With `CC(=O)Nc1cccc(NC(=O)CSc2nccn2Cc2ccc3c(c2)OCO3)c1` as the compound, how does the AC50 read?
**A.** 39.8 µM [falling, single point]

**Q.** With `COc1cc(NC(=O)CN(c2ccc(C)cc2)S(=O)(=O)c2c(C)n[nH]c2C)cc(OC)c1` as the compound, how does the AC50 read?
**A.** 1.58 µM [falling, partial curve]

**Q.** With `CCOc1ccc(-c2nc(CSCC(=O)N3CCN(C(=O)c4ccco4)CC3)c(C)o2)cc1` as the compound, how does the AC50 read?
**A.** 15.8 µM [falling, partial curve]

**Q.** Which AC50 does the source give for `CC(C)CCN(C(=O)Nc1ccc(Cl)c(Cl)c1)C1CCN(C(C)C)CC1` here?
**A.** 25.1 µM [falling, partial curve, poor fit]

**Q.** For `O=C(c1noc2c1CCCCC2)N1CCN(c2cccc(Cl)c2)CC1`, which AC50 is on record?
**A.** 25.1 µM [falling, partial curve]

**Q.** With `Cc1ccc(NC(=O)N2CC3CCCN3c3ccccc32)cc1Cl` (configuration not stated) as the compound, how does the AC50 read?
**A.** 25.1 µM [falling, single point]

**Q.** Which AC50 does the source give for `O=C(Cn1ncc2c3ccccc3n(Cc3ccccc3F)c2c1=O)N1CCCCCC1` here?
**A.** 15.8 µM [falling, partial curve]

**Q.** Which AC50 does the source give for `O=C(COc1ccc(Cl)cc1)Nc1nc(-c2cccs2)cs1` here?
**A.** 39.8 µM [rising, single point] [measured here: IkB-luc green channel]

**Q.** For `CCCCC(=O)Nc1cc2nn(-c3ccc(OC)cc3)nc2cc1C`, which AC50 is on record?
**A.** 0.316 µM [rising, full curve, poor fit]

**Q.** With `COC(=O)c1c(C)n(-c2ccccc2)c2ccc(O)cc12` as the compound, how does the AC50 read?
**A.** 15.8 µM [falling, partial curve]

**Q.** For `CCc1ccccc1NC(=O)Cn1nnc2sc3c(c2c1=O)CCC(C(C)(C)C)C3` (configuration not stated), which AC50 is on record?
**A.** 20 µM [falling, single point]

**Q.** Which AC50 does the source give for `O=C(c1cc2ccc3cccnc3c2[nH]1)N1CCCCC1` here?
**A.** 0.794 µM [falling, full curve]

**Q.** For `CCN1CCSc2ccc(C(=O)NCc3ccc(F)cc3)cc21`, which AC50 is on record?
**A.** 39.8 µM [falling, single point]

**Q.** For `Cc1ccc(CNC(=O)CCSCc2cnn(-c3ccccc3)c2-n2cccc2)cc1`, which AC50 is on record?
**A.** 39.8 µM [falling, single point]

**Q.** With `CC(C)c1ccc(OCC(=O)Nc2cc(-c3ccccc3)no2)cc1` as the compound, how does the AC50 read?
**A.** 15.8 µM [falling, partial curve]

**Q.** With `COc1cc(CN(C(=O)c2ccccc2Br)c2ccccn2)cc(OC)c1OC` as the compound, how does the AC50 read?
**A.** 25.1 µM [falling, single point]

**Q.** With `CC(=O)Nc1ccc(S(=O)(=O)N2CCN(c3nc(NC4CCCC4)c4ccccc4n3)CC2)cc1` as the compound, how does the AC50 read?
**A.** 10 µM [falling, partial curve]

**Q.** Which AC50 does the source give for `Cc1ccc(C)c(N2CCN(C(=O)CCS(=O)(=O)c3ccc4c(c3)oc(=O)n4C)CC2)c1` here?
**A.** 39.8 µM [falling, single point]

**Q.** Which AC50 does the source give for `Cc1ccc(NC(=O)CN2C(=O)C(c3ccc(C)cc3)=NC23CCCCCC3)cc1` here?
**A.** 10 µM [falling, partial curve]

**Q.** Which AC50 does the source give for `CCc1ccc(NC(=O)c2cccc(N3CCCS3(=O)=O)c2)cc1` here?
**A.** 39.8 µM [falling, single point]

**Q.** For `COc1ccc2c(c1)c(=O)c(S(=O)(=O)c1ccc(Cl)cc1)cn2Cc1cc(C)ccc1C`, which AC50 is on record?
**A.** 5.01 µM [falling, partial curve]

**Q.** With `CCn1ccc2c(OCC(=O)Nc3ccc(C)c(Cl)c3)cccc2c1=O` as the compound, how does the AC50 read?
**A.** 39.8 µM [falling, single point]

**Q.** For `COc1cccc(N2CCN(C(=O)CCSCc3ccccc3F)CC2)c1`, which AC50 is on record?
**A.** 39.8 µM [falling, single point]

**Q.** Which AC50 does the source give for `CCOC(=O)C1CCN(S(=O)(=O)c2cc3c4c(c2)C(C)C(=O)N4CCC3)CC1` (configuration not stated) here?
**A.** 7.94 µM [rising, single point]

**Q.** With `Cc1cccc(C(=O)Nc2c(C(=O)N3CCN(c4ccc(F)cc4)CC3)oc3ccccc23)c1` as the compound, how does the AC50 read?
**A.** 10 µM [falling, partial curve]

**Q.** For `CCc1ccc2[nH]c(=O)c(CN(Cc3ccccc3OC)Cc3nnnn3Cc3ccco3)cc2c1`, which AC50 is on record?
**A.** 15.8 µM [falling, partial curve]

**Q.** Which AC50 does the source give for `O=C(Cc1ccc(Cl)cc1)NCC(c1cccs1)S(=O)(=O)c1ccccc1` (configuration not stated) here?
**A.** 39.8 µM [falling, single point]

**Q.** For `COc1ccc(CC(=O)Nc2ccc(-c3nnc(-c4ccccc4)o3)cc2)cc1OC`, which AC50 is on record?
**A.** 0.01 µM [falling, full curve]

**Q.** Which AC50 does the source give for `Cc1ccc(C)c(NC(=O)CSc2nnc3[nH]c(=O)cc(-c4ccccc4)n23)c1` here?
**A.** 25.1 µM [falling, partial curve]

**Q.** Which AC50 does the source give for `CCOc1ccc(NC(=O)Cn2c(=O)n(CC3CCC(C(=O)NCCc4ccccc4)CC3)c(=O)c3ccccc32)cc1` (configuration not stated) here?
**A.** 39.8 µM [falling, single point]

**Q.** Which AC50 does the source give for `COc1ccc(NC(=O)CSc2oc(-c3ccco3)nc2S(=O)(=O)c2ccc(C)cc2)c(OC)c1` here?
**A.** 0.0251 µM [falling, full curve, poor fit]

**Q.** With `COc1ccccc1C(=O)Nc1cccc(C(=O)OCc2cc(=O)n3c4c(sc3n2)CCCC4)c1` as the compound, how does the AC50 read?
**A.** 3.16 µM [falling, full curve]

**Q.** With `Cc1c(CNC(C)CCc2ccccc2)c(C(=O)O)c(C)n1Cc1ccc(F)cc1` (configuration not stated) as the compound, how does the AC50 read?
**A.** 20 µM [falling, single point]

**Q.** For `Cc1csc2nc(COC(=O)c3cccc(NC(=O)COc4ccccc4Cl)c3)cc(=O)n12`, which AC50 is on record?
**A.** 5.01 µM [falling, full curve]

**Q.** With `CCCC(=O)c1ccc(N2CCN(C(=O)c3ccccc3Br)CC2)c(F)c1` as the compound, how does the AC50 read?
**A.** 10 µM [falling, partial curve]

**Q.** For `COc1ccc(CNC(=O)CC2N=C3c4ccccc4N=C(SCC(=O)Nc4ccc(C(C)C)cc4)N3C2=O)cc1` (configuration not stated), which AC50 is on record?
**A.** 39.8 µM [falling, single point]

**Q.** For `COC(=O)CCCn1c(-c2ccc(C)cc2)c(C)n2c3c(=O)n(C)c(=O)n(C)c3nc12`, which AC50 is on record?
**A.** 25.1 µM [falling, single point]

**Q.** For `COc1ccc(-c2cn3c(n2)sc2cc(C(=O)NC(C)C45CC6CC(CC(C6)C4)C5)ccc23)cc1` (configuration not stated), which AC50 is on record?
**A.** 39.8 µM [falling, single point]

**Q.** Which AC50 does the source give for `Cc1ccn2c(Nc3ccccc3C)c(-c3ccncc3)nc2c1` here?
**A.** 39.8 µM [falling, single point]

**Q.** With `Nc1nc(COc2ccc3ccccc3c2)cs1` as the compound, how does the AC50 read?
**A.** 12.6 µM [falling, single point]

**Q.** Which AC50 does the source give for `Cc1ccc(CNC(=O)C2CCN(Cc3nc(-c4ccccc4C)oc3C)CC2)cc1` here?
**A.** 39.8 µM [falling, single point]

**Q.** For `Cc1cccc(NC(=O)CSc2nnc(CNC(=O)c3cccc(C)c3)n2-c2ccccc2)c1`, which AC50 is on record?
**A.** 3.98 µM [falling, partial curve]

**Q.** For `COc1ccc(-c2noc(CN(C(=O)c3ccccc3Cl)C(C)C)n2)cc1`, which AC50 is on record?
**A.** 25.1 µM [falling, partial curve]

**Q.** With `COc1ccc(OCc2nnc(SC(C)C(=O)Nc3nccs3)n2-c2ccccc2)cc1` (configuration not stated) as the compound, how does the AC50 read?
**A.** 15.8 µM [falling, partial curve]

**Q.** With `Cc1ccc2nc(CSc3nnc(NC(=O)CC(C)C)s3)cc(=O)n2c1` as the compound, how does the AC50 read?
**A.** 25.1 µM [falling, single point]

**Q.** Which AC50 does the source give for `Cc1ccc(Cn2c(CN3CCC(C(=O)NCc4cccnc4)CC3)cc3ccccc32)cc1` here?
**A.** 12.6 µM [falling, partial curve]

**Q.** Which AC50 does the source give for `CCOc1ccc(CNC(=O)CCC(=O)N2Cc3ccccc3Oc3ncccc32)cc1` here?
**A.** 20 µM [falling, single point]

**Q.** For `CCOc1ccccc1NC(=O)c1ccc2c(c1)CCN2S(C)(=O)=O`, which AC50 is on record?
**A.** 25.1 µM [falling, single point]

**Q.** With `COc1cc(C2c3c(-c4cc(C)ccc4O)n[nH]c3C(=O)N2Cc2cccnc2)cc(OC)c1OC` (configuration not stated) as the compound, how does the AC50 read?
**A.** 25.1 µM [rising, partial curve]

**Q.** With `Cc1ccc(-n2c(SCC(=O)N3CCc4ccccc43)nc3c([nH]c4ccccc43)c2=O)cc1` as the compound, how does the AC50 read?
**A.** 10 µM [rising, partial curve]

**Q.** For `CC(C)c1nnc(NC(=O)c2cccs2)s1`, which AC50 is on record?
**A.** 15.8 µM [falling, partial curve]
